Literature values, collected in patent publication US20020039601A1, “Cancer cell growth suppressor and cell differentiation inducer and method for manufacturing the same” (priority 2000, published 2002).
Some results were stated once for a whole list of compounds, not compound by compound.

System: HL-60 cells
Conditions: HL60 cells, respective maximum concentration; cited from earlier work

In the case of active type vitamin D3, the “differentiation at maximum concentration” value is given as no less than 90%.
